Source: paper PMC6721605
These are yes or no findings as the source states them, for the method shown. Binding seen in cells or lysates may run through a third protein. A result given as binding can be weak or reduced; the word gives no strength.

Target: dynamin-like protein B (dlpB) of Dictyostelium discoideum (Dictyostelium discoideum (endogenous in AX2))
Assay: co-IP; anti-dlpB antibodies on Dynabeads protein G; lysate of non-synchronized (interphase) wild-type cells; lysis buffer 150 mM NaCl, 5 mM EGTA, 5 mM EDTA, 1% Triton X-100, 20 mM Tris-HCl pH 7.5; western blot with anti-dlpA and anti-dlpB

binding: binds weakly
B1: dynamin-like protein A (dlpA) of Dictyostelium discoideum (protein, UniProt Q55F94 1-880)
chain: MSVFKKKDKSDDKKKKHDEETPQGTFQPASQSTSNTNLNSLASSVNNGASVGSTNGSTPNNSNGSTPTYNHNNSAEELEKQKKEEDEKRKKSELEAAAAVVAKKKEDEEKQRKEQVELERKRRDEEIRRTNAAAANAANKELNEQVEISSLEQMGKLDPSSTIHDMFSFFPNEVYNSYEKLQYFSRDLNTAVSHPEIVFVGPRSSGKSSLIEAFIGRALNIVGGGNIVGVGGSNANGCSKRVLYLQFTNNIDFEVPKVTIKKDNTIKEFDHDIIVSIEQLNENLAKRNQLTNDYIEEPIYVSIESRTTLNLTLIDSPGLLFDQSQAESNKIESIVSSLLRPSHRLIIAVESCSQDWKSMSMGQYLKKIDPELSRSTFVFTKFHHTVRGFSSTRDINKYLSGTVPDIKGFFVTLPNHQVRASYSEANRFQEKIYQAHKRDMHALEQLQYDKRYERTIGVAPLRRYILNIVWKSYQDTIPRILKHLRSKRQTAEATLNELQKQSSSLDSTKLRSIASNYTVTFLQITEKLLSGTSEGNPSANGQTLDEEKSQQGDCGEWVDAYKEAIYIDPEEWNIPYWSSKLYGGQQLERLMAEFKAVCDNSKISEVKMDDIATASGINKLNNIPNYAWAASDLTSLISRDTFVPLIEQLCERAMYIMKRLTDIADKVIDSRRKSRCIGSSPFGGNGLNNINSGGNNGININDRLSNTDMDSLDQYPFFTHHVKNLYYDFVHRAAKGCKEKCMDEFYSSRTIYWELTEHPDSSLPSIRNDHHETKTAVCQLATKLFDSIRQRITKNVLLKLYNFFLVPMQTDLWNEIQAQITCLSNEQLEQLFEVQATREQLKQEEKKQQQILEKYSQIDEQFLKAASLFCRPLSNPTPSA
